Common to all, as to assay: co-IP; quantitative multiplex coimmunoprecipitation (QMI): IP antibodies on Luminex beads in NIH 3T3 lysate (1% digitonin, 150 mM NaCl, 50 mM Tris pH 7.4) overnight at 4 °C, biotinylated probe antibodies, streptavidin-phycoerythrin, median fluorescent intensity of each IP_Probe pair; cells at baseline, serum starved 12 h, or refed 5, 15 or 60 min, without or with BKM120, AZD5363, RAD001, FR180204, U0126, PD98059, Torin-1, sapanisertib or Rapalink-1

By UniProt entry, the sequences of proteins in these tests, tags left out.
UniProt Q3UHD9: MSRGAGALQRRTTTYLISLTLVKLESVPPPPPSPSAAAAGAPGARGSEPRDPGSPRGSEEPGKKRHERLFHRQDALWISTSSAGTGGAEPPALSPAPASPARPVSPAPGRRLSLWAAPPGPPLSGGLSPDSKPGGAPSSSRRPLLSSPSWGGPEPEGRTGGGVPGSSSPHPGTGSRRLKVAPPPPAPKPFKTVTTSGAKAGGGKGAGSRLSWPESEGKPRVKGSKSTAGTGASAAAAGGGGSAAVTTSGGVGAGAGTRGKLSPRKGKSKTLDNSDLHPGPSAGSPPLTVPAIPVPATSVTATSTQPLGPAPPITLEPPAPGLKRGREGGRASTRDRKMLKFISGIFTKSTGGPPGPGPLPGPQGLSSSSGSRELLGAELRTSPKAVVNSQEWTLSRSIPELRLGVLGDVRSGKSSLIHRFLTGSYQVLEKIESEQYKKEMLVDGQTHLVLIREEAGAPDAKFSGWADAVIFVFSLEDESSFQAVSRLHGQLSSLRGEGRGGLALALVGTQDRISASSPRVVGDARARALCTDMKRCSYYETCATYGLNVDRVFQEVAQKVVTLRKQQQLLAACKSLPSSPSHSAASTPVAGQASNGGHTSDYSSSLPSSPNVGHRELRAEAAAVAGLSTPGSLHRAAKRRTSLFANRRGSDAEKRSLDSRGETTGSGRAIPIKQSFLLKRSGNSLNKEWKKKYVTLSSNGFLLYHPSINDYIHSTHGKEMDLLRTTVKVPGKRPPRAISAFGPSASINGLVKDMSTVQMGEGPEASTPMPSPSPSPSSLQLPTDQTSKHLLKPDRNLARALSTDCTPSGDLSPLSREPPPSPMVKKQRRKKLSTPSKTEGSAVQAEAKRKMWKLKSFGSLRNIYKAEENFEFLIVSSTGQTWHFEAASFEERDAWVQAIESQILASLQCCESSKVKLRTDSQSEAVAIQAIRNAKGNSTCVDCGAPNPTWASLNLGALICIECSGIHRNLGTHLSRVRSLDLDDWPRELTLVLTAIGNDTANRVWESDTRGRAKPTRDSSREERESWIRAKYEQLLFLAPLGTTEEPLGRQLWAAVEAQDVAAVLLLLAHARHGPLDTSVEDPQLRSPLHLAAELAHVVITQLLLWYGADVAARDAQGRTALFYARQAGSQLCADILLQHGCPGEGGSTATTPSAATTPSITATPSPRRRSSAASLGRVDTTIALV
UniProt P63073: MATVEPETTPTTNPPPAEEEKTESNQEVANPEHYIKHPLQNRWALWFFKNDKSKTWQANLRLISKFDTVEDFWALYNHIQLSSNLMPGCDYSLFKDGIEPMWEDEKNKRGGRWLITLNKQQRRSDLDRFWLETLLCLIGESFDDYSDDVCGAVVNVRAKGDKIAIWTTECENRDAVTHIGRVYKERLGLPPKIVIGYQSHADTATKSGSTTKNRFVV
UniProt Q8BSK8: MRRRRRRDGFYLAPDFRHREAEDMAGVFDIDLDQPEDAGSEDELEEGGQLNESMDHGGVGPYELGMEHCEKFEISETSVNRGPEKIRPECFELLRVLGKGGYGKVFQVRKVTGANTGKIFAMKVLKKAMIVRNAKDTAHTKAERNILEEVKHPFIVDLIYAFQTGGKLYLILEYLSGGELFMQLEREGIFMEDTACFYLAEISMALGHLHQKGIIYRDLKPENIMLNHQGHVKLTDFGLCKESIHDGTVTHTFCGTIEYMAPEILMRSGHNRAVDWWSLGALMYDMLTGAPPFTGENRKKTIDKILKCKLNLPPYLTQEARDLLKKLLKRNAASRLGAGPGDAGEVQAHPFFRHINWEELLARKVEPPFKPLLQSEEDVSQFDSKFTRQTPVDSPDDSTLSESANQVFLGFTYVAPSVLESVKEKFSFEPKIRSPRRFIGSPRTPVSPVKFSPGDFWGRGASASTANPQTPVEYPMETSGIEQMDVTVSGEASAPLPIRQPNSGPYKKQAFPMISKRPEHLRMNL
UniProt Q6QI06: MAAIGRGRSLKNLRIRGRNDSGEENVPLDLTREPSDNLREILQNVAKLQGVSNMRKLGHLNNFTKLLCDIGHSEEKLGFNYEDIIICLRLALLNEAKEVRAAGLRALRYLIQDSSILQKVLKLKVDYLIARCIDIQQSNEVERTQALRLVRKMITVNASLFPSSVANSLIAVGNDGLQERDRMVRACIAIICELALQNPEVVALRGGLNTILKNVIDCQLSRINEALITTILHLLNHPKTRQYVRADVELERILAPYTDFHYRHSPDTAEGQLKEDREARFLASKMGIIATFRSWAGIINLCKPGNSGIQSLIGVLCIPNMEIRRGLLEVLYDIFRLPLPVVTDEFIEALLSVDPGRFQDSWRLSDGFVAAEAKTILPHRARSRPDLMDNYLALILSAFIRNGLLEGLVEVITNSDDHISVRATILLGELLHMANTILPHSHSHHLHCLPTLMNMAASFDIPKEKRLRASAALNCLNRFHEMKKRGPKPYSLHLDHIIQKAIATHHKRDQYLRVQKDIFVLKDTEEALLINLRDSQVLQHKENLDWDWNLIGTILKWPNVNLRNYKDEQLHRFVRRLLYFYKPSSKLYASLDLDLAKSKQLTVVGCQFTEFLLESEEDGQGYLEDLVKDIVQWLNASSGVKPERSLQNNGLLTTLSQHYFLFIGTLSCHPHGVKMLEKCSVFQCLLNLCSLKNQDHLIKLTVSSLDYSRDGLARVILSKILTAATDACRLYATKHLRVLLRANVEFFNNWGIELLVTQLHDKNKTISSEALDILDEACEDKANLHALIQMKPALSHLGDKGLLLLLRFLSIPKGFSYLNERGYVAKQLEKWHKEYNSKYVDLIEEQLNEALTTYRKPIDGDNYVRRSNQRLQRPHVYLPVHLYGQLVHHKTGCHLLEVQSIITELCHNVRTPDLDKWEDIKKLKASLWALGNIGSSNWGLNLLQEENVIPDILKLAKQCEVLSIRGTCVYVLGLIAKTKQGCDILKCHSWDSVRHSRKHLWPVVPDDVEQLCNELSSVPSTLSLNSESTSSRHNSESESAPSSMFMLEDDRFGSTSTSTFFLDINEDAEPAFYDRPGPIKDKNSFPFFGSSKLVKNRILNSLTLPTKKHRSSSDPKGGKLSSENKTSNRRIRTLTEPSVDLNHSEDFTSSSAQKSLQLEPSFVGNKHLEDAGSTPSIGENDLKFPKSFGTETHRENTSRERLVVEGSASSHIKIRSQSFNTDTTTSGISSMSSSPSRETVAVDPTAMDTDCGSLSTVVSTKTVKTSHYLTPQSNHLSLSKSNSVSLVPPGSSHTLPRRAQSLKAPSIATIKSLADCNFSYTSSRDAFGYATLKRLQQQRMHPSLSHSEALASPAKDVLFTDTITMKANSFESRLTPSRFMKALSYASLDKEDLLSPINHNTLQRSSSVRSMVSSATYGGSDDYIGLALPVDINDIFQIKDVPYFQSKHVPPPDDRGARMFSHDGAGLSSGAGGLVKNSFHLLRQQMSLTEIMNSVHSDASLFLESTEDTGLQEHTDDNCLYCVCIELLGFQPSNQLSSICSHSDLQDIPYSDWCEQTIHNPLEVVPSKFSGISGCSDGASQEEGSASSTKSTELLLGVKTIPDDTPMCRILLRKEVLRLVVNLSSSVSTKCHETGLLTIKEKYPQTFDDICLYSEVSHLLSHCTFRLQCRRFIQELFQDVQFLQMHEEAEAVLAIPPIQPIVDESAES

The target of experiment [1] is PIKE (mouse (endogenous in NIH 3T3)) (UniProt Q3UHD9).
For experiment [2], the target named is EIF4E (mouse (endogenous in NIH 3T3)) (UniProt P63073).
For experiment [3] the target is unchanged. This is another data set of the same source.
Experiment [4] deals with PIKE (mouse (endogenous in NIH 3T3)) (UniProt Q3UHD9). The source holds these as a separate data set.

The results in this text go back to article PMC10594569.

Like-named read-outs stand apart in the source and are kept apart here. No constants are given. Whether binding was seen depends on the method and setting. Binding seen in cells or lysates may run through a third protein. Some results given as binding are weak or reduced against the parent protein; the word gives no strength.

For the molecule EIF4E (from UniProt P63073 1-217), the binding result in experiment [1] is “binds”.
Take p70S6 (from UniProt Q8BSK8 1-525): in experiment [2], the binding entry is on record as “binds”.
On the same count and under the same terms, then RICTOR (from UniProt Q6QI06 1-1708), with “binds”.

B1: TSC1 (protein, UniProt Q9EP53 1-1161)
chain: MAQLANIGELLSMLDSSTLGVRDDVTAIFKESLNSERGPMLVNTLVDYYLETNSQPVLHILTTLQEPHDKHLLDKINEYVGKAATRLSILSLLGHVVRLQPSWKHKLSQAPLLPSLLKCLKMDTDVVVLTTGVLVLITMLPMIPQSGKQHLLDFFDIFGRLSSWCLKKPGHVTEVYLVHLHASVYALFHRLYGMYPCNFVSFLRSHYSMKENVETFEEVVKPMMEHVRIHPELVTGSKDHELDPRRWKTLETHDVVIECAKISLDPTEASYEDGYSVSHQLSACFPYRSADVTTSPYVDTQNSYGGSTSTPSSSSRLMLFSPPGQLPQSLSSPSTRLLPEPLQASLWSPSAVCGMTTPPTSPGNVPADLSHPYSKAFGTTAGGKGTPSGTPATSPPPAPPCPQDDCVHGSAAQASATAPRKEERADSSRPYLHRQSNDRGLEDPPGSKGSVTLRNLPDFLGDLASEEDSIEKDKEEAAISKELSEITTAEADPVVPRGGFDSPFYRDSLSGSQRKTHSAASGTQGSSVNPEPLHSSLDKHGPDTPKQAFTPIDPPSGSADVSPAGDRDRQTSLETSILTPSPCKIPPQRGVSFGSGQLPPYDHLFEVALPKTACHFVSKKTEELLKKVKGNPEEDCVPSTSPMEVLDRLIEQGAGAHSKELSRLSLPSKSVDWTHFGGSPPSDELRTLRDQLLLLHNQLLYERFKRQQHALRNRRLLRKVIRAAALEEHNAAMKDQLKLQEKDIQMWKVSLQKEQARYSQLQEQRDTMVTQLHSQIRQLQHDREEFYNQSQELQTKLEDCRNMIAELRVELKKANNKVCHTELLLSQVSQKLSNSESVQQQMEFLNRQLLVLGEVNELYLEQLQSKHPDTTKEVEMMKTAYRKELEKNRSHLLQQNQRLDASQRRVLELESLLAKKDHLLLEQKKYLEDVKSQASGQLLAAESRYEAQRKITRVLELEILDLYGRLEKDGRLRKLEEDRAEAAEAAEERLDCCSDGCTDSLVGHNEEASGHNGETRTSRPGGTRASCGGRVTGGSSSSSSELSTPEKPPSQRFSSRWEPALGEPSSSIPTTVGSLPSSKSFLGMKARELFRNKSESQCDEDSVTMSSSSLSETLKTELGKDSGTENKTSLSLDAPHPSSPNSDNVGQLHIMDYNETHPEHS
In the case of B1, the binding entry in experiment [3] and in experiment [4] was “binds” throughout.
